Measurements published in the supplement of paper PMC10849652.
This is one part of the list.

Sequences of proteins named here, by UniProt entry; tags and fusion partners are left off. A change or cut given only in a name is not applied to a line headed by its entry.
UniProt Q14119: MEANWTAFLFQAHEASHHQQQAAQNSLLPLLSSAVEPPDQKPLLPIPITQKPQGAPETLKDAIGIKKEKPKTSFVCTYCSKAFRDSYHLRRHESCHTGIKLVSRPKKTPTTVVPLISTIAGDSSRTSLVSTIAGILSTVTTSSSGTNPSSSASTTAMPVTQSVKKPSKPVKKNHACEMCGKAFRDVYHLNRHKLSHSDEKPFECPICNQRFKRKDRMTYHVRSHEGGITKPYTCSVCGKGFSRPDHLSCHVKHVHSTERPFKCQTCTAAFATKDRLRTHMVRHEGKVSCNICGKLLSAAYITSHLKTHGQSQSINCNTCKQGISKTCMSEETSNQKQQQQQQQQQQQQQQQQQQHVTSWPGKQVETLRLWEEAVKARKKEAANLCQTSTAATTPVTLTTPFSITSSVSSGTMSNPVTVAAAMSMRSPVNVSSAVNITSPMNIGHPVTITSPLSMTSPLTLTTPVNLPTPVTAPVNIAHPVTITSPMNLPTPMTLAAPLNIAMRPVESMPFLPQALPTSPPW
UniProt Q9Y4E8: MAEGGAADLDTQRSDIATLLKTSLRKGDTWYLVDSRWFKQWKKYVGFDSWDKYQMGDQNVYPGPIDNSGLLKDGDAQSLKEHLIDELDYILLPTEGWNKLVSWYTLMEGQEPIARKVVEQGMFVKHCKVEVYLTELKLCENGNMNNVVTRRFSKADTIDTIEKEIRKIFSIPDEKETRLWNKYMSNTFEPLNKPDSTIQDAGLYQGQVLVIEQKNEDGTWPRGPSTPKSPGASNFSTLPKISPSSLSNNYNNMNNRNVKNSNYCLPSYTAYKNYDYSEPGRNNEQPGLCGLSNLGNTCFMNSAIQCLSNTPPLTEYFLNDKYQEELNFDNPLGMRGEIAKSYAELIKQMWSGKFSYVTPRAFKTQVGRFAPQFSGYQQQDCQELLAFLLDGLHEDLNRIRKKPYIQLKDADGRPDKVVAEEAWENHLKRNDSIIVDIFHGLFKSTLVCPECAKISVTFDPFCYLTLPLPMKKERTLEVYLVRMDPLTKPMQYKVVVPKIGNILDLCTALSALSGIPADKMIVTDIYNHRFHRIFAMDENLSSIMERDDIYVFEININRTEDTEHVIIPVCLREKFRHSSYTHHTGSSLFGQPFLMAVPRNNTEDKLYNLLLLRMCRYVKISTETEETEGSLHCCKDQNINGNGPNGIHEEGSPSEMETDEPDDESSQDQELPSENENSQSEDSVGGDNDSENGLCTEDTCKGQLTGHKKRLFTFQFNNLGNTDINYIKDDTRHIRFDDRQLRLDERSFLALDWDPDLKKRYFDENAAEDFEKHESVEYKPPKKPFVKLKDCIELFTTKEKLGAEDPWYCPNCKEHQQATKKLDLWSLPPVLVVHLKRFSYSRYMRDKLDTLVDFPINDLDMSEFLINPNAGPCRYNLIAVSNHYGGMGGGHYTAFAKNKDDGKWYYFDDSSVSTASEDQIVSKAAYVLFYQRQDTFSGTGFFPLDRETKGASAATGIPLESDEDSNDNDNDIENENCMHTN
UniProt Q99536: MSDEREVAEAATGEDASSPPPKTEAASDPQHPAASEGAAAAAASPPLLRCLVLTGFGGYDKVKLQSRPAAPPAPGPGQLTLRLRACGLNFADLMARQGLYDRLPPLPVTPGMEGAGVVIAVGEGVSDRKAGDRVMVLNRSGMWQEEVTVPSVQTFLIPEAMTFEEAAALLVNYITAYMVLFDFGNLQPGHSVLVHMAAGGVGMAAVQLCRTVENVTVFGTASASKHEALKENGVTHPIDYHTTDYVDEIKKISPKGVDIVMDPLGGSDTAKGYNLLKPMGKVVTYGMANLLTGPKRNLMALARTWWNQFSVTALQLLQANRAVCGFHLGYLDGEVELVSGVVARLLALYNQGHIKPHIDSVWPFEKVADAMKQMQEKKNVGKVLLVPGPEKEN
UniProt Q9NQZ2: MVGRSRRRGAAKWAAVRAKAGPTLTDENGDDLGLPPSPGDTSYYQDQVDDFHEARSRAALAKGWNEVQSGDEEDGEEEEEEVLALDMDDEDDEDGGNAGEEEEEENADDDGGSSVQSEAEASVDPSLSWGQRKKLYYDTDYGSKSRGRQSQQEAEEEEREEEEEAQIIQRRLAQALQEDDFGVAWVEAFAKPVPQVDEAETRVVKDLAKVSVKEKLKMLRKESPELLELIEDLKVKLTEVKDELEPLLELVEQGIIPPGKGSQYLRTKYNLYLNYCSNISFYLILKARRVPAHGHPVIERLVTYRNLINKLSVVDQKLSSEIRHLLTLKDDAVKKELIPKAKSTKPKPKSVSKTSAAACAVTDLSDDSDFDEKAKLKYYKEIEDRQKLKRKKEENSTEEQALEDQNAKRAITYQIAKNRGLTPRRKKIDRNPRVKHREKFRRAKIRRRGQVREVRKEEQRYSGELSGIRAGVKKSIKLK
UniProt Q9H1C4: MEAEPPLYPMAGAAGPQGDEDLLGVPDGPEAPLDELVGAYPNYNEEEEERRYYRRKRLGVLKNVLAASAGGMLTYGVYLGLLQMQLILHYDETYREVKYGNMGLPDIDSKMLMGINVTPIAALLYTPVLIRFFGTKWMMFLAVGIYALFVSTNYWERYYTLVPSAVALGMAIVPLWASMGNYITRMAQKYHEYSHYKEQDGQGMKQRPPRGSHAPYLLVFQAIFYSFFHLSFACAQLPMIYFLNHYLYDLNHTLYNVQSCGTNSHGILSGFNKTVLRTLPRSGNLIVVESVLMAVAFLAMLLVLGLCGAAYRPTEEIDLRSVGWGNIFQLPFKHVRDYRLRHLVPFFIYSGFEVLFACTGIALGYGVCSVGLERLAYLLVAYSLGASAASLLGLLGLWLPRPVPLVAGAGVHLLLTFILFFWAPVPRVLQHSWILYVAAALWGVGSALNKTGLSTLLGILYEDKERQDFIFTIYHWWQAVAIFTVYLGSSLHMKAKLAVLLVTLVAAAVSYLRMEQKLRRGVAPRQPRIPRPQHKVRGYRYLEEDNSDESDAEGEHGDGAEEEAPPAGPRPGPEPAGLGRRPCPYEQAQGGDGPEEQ
UniProt O14957: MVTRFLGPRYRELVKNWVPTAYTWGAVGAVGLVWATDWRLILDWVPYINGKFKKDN
UniProt P61758, whole entry, looked up: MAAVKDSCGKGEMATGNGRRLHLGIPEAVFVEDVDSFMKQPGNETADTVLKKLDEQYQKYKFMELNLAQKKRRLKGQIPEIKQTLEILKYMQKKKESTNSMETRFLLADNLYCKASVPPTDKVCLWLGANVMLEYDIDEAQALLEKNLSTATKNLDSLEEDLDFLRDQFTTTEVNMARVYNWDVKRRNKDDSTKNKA
UniProt Q9NZ43: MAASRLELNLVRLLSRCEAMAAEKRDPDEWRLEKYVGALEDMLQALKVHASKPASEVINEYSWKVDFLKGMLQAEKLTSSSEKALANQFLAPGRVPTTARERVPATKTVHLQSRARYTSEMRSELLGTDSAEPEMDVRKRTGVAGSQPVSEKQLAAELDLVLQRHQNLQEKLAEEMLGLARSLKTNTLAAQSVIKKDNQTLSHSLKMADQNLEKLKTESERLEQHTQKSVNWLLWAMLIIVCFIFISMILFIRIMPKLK
UniProt P06132: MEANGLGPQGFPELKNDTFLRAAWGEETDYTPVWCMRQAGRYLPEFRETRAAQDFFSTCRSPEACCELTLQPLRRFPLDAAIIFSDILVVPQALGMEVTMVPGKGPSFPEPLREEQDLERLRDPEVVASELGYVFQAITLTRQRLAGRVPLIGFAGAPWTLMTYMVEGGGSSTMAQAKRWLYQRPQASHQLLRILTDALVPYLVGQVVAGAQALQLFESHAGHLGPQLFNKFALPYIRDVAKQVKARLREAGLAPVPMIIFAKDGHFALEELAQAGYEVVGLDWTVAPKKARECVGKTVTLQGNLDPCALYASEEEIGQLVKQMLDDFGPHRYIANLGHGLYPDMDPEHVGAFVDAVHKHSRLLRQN
UniProt Q96BW1: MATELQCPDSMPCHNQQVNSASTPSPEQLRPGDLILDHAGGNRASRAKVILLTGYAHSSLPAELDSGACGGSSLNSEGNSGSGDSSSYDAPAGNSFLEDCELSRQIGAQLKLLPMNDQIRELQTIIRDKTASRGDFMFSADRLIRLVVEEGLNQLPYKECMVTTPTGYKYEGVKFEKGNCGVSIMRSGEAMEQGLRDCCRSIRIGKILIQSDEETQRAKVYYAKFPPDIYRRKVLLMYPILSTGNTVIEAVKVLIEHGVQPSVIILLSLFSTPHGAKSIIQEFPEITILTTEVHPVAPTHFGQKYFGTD
UniProt P61960, whole entry, looked up: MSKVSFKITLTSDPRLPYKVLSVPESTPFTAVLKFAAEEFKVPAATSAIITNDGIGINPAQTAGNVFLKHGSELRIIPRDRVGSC
UniProt Q9BVJ6: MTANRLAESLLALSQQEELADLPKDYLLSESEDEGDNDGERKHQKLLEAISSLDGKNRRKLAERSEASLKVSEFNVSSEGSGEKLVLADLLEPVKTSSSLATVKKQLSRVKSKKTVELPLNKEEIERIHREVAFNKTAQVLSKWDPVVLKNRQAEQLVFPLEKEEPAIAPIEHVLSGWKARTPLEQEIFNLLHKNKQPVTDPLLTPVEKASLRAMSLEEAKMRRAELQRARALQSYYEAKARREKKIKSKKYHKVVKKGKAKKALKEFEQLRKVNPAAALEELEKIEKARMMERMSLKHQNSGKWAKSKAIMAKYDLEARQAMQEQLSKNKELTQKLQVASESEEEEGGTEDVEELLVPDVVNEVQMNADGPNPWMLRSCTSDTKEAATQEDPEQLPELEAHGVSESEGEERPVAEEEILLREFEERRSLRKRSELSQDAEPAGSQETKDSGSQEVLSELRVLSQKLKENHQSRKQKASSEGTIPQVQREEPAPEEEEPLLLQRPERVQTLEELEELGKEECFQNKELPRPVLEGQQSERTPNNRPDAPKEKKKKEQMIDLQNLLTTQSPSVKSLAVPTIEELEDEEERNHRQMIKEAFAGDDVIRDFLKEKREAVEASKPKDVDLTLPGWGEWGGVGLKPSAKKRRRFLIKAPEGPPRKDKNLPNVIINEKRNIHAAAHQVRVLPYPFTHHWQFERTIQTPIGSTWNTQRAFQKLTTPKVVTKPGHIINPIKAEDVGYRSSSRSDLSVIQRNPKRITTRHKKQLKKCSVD
UniProt Q15853: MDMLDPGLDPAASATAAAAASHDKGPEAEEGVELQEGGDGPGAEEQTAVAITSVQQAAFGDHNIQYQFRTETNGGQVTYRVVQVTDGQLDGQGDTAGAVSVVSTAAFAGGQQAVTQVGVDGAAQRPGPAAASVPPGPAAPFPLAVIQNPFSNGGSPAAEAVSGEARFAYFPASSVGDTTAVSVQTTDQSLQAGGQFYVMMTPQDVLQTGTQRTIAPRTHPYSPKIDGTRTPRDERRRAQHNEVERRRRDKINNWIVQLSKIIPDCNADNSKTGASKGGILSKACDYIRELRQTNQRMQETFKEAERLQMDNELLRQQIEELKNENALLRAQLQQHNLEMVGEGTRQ
UniProt Q96JH7: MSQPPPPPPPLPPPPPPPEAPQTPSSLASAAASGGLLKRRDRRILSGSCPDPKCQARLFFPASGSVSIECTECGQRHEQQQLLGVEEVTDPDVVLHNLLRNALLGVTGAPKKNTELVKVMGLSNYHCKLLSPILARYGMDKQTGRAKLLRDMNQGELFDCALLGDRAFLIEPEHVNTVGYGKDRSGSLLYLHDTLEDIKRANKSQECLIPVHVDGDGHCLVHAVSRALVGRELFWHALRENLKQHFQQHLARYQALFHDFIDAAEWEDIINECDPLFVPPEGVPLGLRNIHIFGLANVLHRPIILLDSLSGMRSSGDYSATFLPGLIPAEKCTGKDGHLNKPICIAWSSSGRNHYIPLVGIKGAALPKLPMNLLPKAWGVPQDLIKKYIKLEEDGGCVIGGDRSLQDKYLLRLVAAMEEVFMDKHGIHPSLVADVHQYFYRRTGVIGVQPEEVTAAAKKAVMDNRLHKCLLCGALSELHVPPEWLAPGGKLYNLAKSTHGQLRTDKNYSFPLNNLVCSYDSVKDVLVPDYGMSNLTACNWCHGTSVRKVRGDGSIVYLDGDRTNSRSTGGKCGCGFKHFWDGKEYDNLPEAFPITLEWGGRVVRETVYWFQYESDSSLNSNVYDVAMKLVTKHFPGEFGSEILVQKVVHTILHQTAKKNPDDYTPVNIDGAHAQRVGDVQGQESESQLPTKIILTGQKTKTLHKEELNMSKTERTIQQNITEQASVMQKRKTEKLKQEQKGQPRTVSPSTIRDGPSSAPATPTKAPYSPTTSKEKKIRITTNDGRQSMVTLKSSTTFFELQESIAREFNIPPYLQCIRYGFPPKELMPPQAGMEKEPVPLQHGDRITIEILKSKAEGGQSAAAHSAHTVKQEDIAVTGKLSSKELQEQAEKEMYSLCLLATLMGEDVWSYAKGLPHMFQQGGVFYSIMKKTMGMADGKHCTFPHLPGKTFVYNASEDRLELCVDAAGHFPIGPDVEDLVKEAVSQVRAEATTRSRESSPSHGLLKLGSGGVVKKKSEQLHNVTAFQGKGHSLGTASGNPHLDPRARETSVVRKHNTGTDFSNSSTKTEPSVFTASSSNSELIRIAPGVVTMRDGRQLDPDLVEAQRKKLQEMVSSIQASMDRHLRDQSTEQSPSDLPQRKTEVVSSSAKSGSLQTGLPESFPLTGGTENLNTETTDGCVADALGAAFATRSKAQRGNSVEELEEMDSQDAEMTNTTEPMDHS

How the values were obtained:
Assay in all cases: log2 fold change, soluble protein after heating vs DMSO (PISA); higher = thermal stabilisation; K562 lysate, 10 uM; active = over 0.2 and 3.5 SD of the protein, either way, in both replicates (recomputed)
vemurafenib = compound: CCCS(=O)(=O)Nc1ccc(F)c(C(=O)c2c[nH]c3ncc(-c4ccc(Cl)cc4)cc23)c1F [vemurafenib]
Method in brief: (§1)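 K562 pellets were dounce-homogenised in PBS pH 7.4 containing 1 mM MgCl2, and the crude extract, at 1 mg/mL protein, was exposed to 10 μM compound for 30 min. Aliquots were heated for 3 min across 48°C-58°C, pooled, brought to 0.5% NP-40 at 4°C and spun at 21,000xg for 90 min, with the supernatant taken as soluble protein. TMTpro 16plex LC-MS/MS with equalised channel sums quantified that protein. Values are log-two fold changes in thermal stability relative to solvent controls, taken from duplicates.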

[1] = compound: CCCS(=O)(=O)Nc1ccc(F)c(C(=O)c2c[nH]c3ncc(Cl)cc23)c1F
Method in brief: as §1

barasertib = compound: CCN(CCCOc1ccc2c(Nc3cc(CC(=O)Nc4cccc(F)c4)[nH]n3)ncnc2c1)CCOP(=O)(O)O [barasertib]
Method in brief: as §1

[2] = compound: CC[C@@H]1C(=O)N(C)c2cnc(Nc3ccc(C(=O)NC4CCN(C)CC4)cc3OC)nc2N1C1CCCC1
Method in brief: as §1

volasertib = compound: CC[C@@H]1C(=O)N(C)c2cnc(Nc3ccc(C(=O)N[C@H]4CC[C@H](N5CCN(CC6CC6)CC5)CC4)cc3OC)nc2N1C(C)C [volasertib]
Method in brief: as §1

[3] = compound: CCn1c(C(=O)N(C2CC2)C2CC2)cc2c3c(ncn3C)c(Nc3cc(C)n(C)n3)nc21
Method in brief: as §1

[4] = compound: CCn1cc(-c2ccnc3[nH]c(-c4cccc(CN(C)C)c4)cc23)c(-c2ccc(NC(=O)N(C)C)cc2)n1
Method in brief: as §1

[5] = compound: CN1CCC(CNc2ccc3ncc(-c4cccc(OC(F)(F)F)c4)n3n2)CC1
Method in brief: as §1

saracatinib = compound: CN1CCN(CCOc2cc(OC3CCOCC3)c3c(Nc4c(Cl)ccc5c4OCO5)ncnc3c2)CC1 [saracatinib]
Method in brief: as §1

sotrastaurin = compound: CN1CCN(c2nc(C3=C(c4c[nH]c5ccccc45)C(=O)NC3=O)c3ccccc3n2)CC1 [sotrastaurin]
Method in brief: as §1

alvocidib = compound: CN1CC[C@H](c2c(O)cc(O)c3c(=O)cc(-c4ccccc4Cl)oc23)[C@H](O)C1 [alvocidib]
Method in brief: as §1

Tubastatin A = compound: CN1CCc2c(c3ccccc3n2Cc2ccc(C(=O)NO)cc2)C1 [Tubastatin A]
Method in brief: as §1

[6] = compound: CNC(=O)C1=CC=CC=C1NC2=NC(=NC=C2Cl)NC3=C(C=C(C=C3)N4CCOCC4)OC
Method in brief: as §1

defactinib = compound: CNC(=O)c1ccc(Nc2ncc(C(F)(F)F)c(NCc3nccnc3N(C)S(C)(=O)=O)n2)cc1 [defactinib]
Method in brief: as §1

[7] = compound: CNc1nc(-c2ccc3c(N)n[nH]c3c2)cc(N2C[C@@H](C(=O)NC3CCCCC3)CC[C@H]2C)n1
Method in brief: as §1

encorafenib = compound: COC(=O)N[C@@H](C)CNc1nccc(-c2cn(C(C)C)nc2-c2cc(Cl)cc(NS(C)(=O)=O)c2F)n1 [encorafenib]
Method in brief: as §1

[8] = compound: COC(=O)[C@H](CCSC)NC(=O)C1=C(C=C(C=C1)NC[C@H](CS)N)C2=CC=CC=C2
Method in brief: as §1

alisertib = compound: COc1cc(Nc2ncc3c(n2)-c2ccc(Cl)cc2C(c2c(F)cccc2OC)=NC3)ccc1C(=O)O [alisertib]
Method in brief: as §1

[9] = compound: COc1cc2nc(-c3cc(F)ccc3O)nc(N[C@@H]3CNC[C@H]3C(C)(C)O)c2cc1OC
Method in brief: as §1

gefitinib = compound: COc1cc2ncnc(Nc3ccc(F)c(Cl)c3)c2cc1OCCCN1CCOCC1 [gefitinib]
Method in brief: as §1

Measured: log2 fold change

VEZF1 (UniProt Q14119)
inactive: vemurafenib 0.07 | [1] -0.118 | barasertib -0.05 | [2] 0.112 | volasertib 0.003 | [3] 0.025 | [4] -0.176 | [5] 0.039 | saracatinib 0.005 | sotrastaurin 0.025 | alvocidib -0.056 | Tubastatin A -0.073 | [6] 0.091 | defactinib -0.057 | [7] -0.062 | encorafenib -0.045 | [8] -0.02 | alisertib 0.048 | [9] 0.002 | gefitinib 0.06

USP15 (UniProt Q9Y4E8)
inactive: vemurafenib 0.012 | [1] 0.008 | barasertib -0.012 | [2] -0.046 | volasertib -0.018 | [3] 0.011 | [4] 0.029 | [5] -0.033 | saracatinib 0.005 | sotrastaurin 0.007 | alvocidib 0.005 | Tubastatin A -0.045 | [6] -0.017 | defactinib -0.009 | [7] -0.028 | encorafenib -0.019 | [8] 0.042 | alisertib 0.018 | [9] -0.015 | gefitinib 0.015

VAT1 (UniProt Q99536)
inactive: vemurafenib 0.019 | [1] -0.004 | barasertib -0.019 | [2] 0.039 | volasertib 0.024 | [3] -0.028 | [4] -0.029 | [5] 0.039 | saracatinib -0.017 | sotrastaurin -0.021 | alvocidib 0.009 | Tubastatin A 0.037 | [6] 0.005 | defactinib -0.004 | [7] 0 | encorafenib -0.022 | [8] -0.037 | alisertib -0.003 | [9] 0.024 | gefitinib -0.051

UTP3 (UniProt Q9NQZ2)
inactive: vemurafenib 0.004 | [1] 0.012 | barasertib 0.058 | [2] -0.009 | volasertib -0.011 | [3] -0.047 | [4] 0 | [5] -0.02 | saracatinib 0.011 | sotrastaurin 0.05 | alvocidib 0.04 | Tubastatin A -0.022 | [6] -0.047 | defactinib 0.151 | [7] 0.089 | encorafenib 0.05 | [8] 0.005 | alisertib -0.042 | [9] -0.002 | gefitinib -0.017

UNC93B1 (UniProt Q9H1C4)
inactive: vemurafenib 0.019 | [1] 0.112 | barasertib 0.015 | [2] 0.143 | volasertib 0 | [3] 0.019 | [4] -0.091 | [5] 0.084 | saracatinib -0.019 | sotrastaurin -0.141 | alvocidib 0.032 | Tubastatin A -0.025 | [6] -0.114 | defactinib -0.079 | [7] -0.036 | encorafenib -0.086 | [8] 0.237 | alisertib -0.037 | [9] -0.156 | gefitinib -0.164

UQCR11 (UniProt O14957)
inactive: vemurafenib -0.024 | [1] 0.004 | barasertib 0.158 | [2] -0.121 | volasertib 0.073 | [3] -0.023 | [4] 0.278 | [5] -0.056 | saracatinib -0.013 | sotrastaurin 0.06 | alvocidib 0.006 | Tubastatin A -0.029 | [6] 0.006 | defactinib 0.177 | [7] 0.116 | encorafenib 0.044 | [8] 0.076 | alisertib 0.011 | [9] -0.041 | gefitinib -0.172

VBP1 (UniProt P61758)
inactive: vemurafenib -0.005 | [1] 0.011 | barasertib -0.033 | [2] 0.029 | volasertib 0.012 | [3] 0.034 | [4] 0.006 | [5] 0.036 | saracatinib -0.019 | sotrastaurin 0.006 | alvocidib 0.022 | Tubastatin A 0.009 | [6] -0.008 | defactinib -0.034 | [7] -0.02 | encorafenib -0.019 | [8] -0.061 | alisertib -0.013 | [9] -0.023 | gefitinib 0.064

USE1 (UniProt Q9NZ43)
inactive: vemurafenib -0.071 | [1] -0.049 | barasertib 0.021 | [2] 0.036 | volasertib 0.04 | [3] 0.093 | [4] 0.002 | [5] -0.103 | saracatinib -0.02 | sotrastaurin 0.017 | alvocidib 0.019 | Tubastatin A -0.054 | [6] -0.002 | defactinib 0.064 | [7] 0.015 | encorafenib 0.067 | [8] -0.037 | alisertib -0.059 | [9] 0.039 | gefitinib -0.026

VDAC2 (UniProt Q5JSD1)
inactive: vemurafenib 0.047 | [1] -0.005 | barasertib -0.066 | [2] 0.113 | volasertib -0.023 | [3] -0.132 | [4] 0.059 | [5] -0.03 | saracatinib -0.012 | sotrastaurin 0.018 | alvocidib 0.003 | Tubastatin A -0.01 | [6] 0.029 | defactinib -0.013 | [7] 0.018 | encorafenib 0.002 | [8] -0.065 | alisertib -0.06 | [9] 0.006 | gefitinib -0.14

UGDH (UniProt O60701)
inactive: vemurafenib 0.008 | [1] 0.017 | barasertib -0.003 | [2] -0.062 | volasertib -0.045 | [3] 0.011 | [4] -0.028 | [5] -0.021 | saracatinib 0.187 | sotrastaurin 0.003 | alvocidib 0.023 | Tubastatin A -0.151 | [6] 0.015 | defactinib 0.071 | [7] -0.132 | encorafenib 0.047 | [8] 0.037 | alisertib -0.025 | [9] -0.004 | gefitinib -0.042

UROD (UniProt P06132)
inactive: vemurafenib 0.021 | [1] 0.03 | barasertib -0.04 | [2] 0.014 | volasertib 0.012 | [3] 0.007 | [4] -0.019 | [5] 0.029 | saracatinib -0.016 | sotrastaurin -0.026 | alvocidib -0.021 | Tubastatin A 0.031 | [6] 0.03 | defactinib 0 | [7] -0.016 | encorafenib -0.013 | [8] -0.06 | alisertib 0.04 | [9] -0.024 | gefitinib -0.064

UPRT (UniProt Q96BW1)
inactive: vemurafenib -0.063 | [1] 0.125 | barasertib -0.004 | [2] 0.109 | volasertib 0.063 | [3] -0.027 | [4] 0.022 | [5] 0.05 | saracatinib 0.026 | sotrastaurin -0.073 | alvocidib -0.016 | Tubastatin A -0.01 | [6] -0.022 | defactinib 0.068 | [7] 0.023 | encorafenib 0.043 | [8] 0.063 | alisertib -0.126 | [9] -0.075 | gefitinib -0.073

UFM1 (UniProt P61960)
inactive: vemurafenib -0.249 | [1] -0.035 | barasertib 0.039 | [2] 0.044 | volasertib 0.047 | [3] 0.014 | [4] 0.491 | [5] -0.338 | saracatinib 0.016 | sotrastaurin 0.028 | alvocidib 0.253 | Tubastatin A 0.102 | [6] 0.037 | defactinib 0.136 | [7] 0.088 | encorafenib 0.023 | [8] -0.076 | alisertib 0.038 | [9] -0.08 | gefitinib -0.116

UTP14A (UniProt Q9BVJ6)
inactive: vemurafenib 0.083 | [1] 0.009 | barasertib 0.012 | [2] 0.043 | volasertib 0.004 | [3] -0.004 | [4] 0.011 | [5] -0.046 | saracatinib 0.044 | sotrastaurin 0.011 | alvocidib -0.024 | Tubastatin A 0.022 | [6] 0.031 | defactinib -0.018 | [7] -0.001 | encorafenib -0.033 | [8] 0.021 | alisertib -0.011 | [9] 0.001 | gefitinib 0.016

USF2 (UniProt Q15853)
inactive: vemurafenib -0.063 | [1] 0.018 | barasertib 0.031 | [2] 0.118 | volasertib -0.021 | [3] -0.005 | [4] 0.095 | [5] 0.002 | saracatinib -0.011 | sotrastaurin 0.05 | alvocidib -0.063 | Tubastatin A -0.026 | [6] 0.094 | defactinib 0.052 | [7] 0.038 | encorafenib 0.049 | [8] 0.01 | alisertib 0.045 | [9] 0.008 | gefitinib 0.021

VCPIP1 (UniProt Q96JH7)
inactive: vemurafenib 0.008 | [1] -0.04 | barasertib 0.051 | [2] -0.006 | volasertib -0.047 | [3] 0.011 | [4] -0.12 | [5] 0.049 | saracatinib -0.03 | sotrastaurin 0.035 | alvocidib -0.049 | Tubastatin A -0.026 | [6] -0.01 | defactinib 0.022 | [7] 0.113 | encorafenib 0.005 | [8] 0.141 | alisertib 0.003 | [9] -0.006 | gefitinib -0.04
